Source: paper PMC12781873
These are yes or no findings as the source states them, for the method shown. In cells and extracts the contact can be indirect. Some binding calls cover weakened binding; strength is not graded here. For some assays here: Sequences can lack the tags named with a protein.

T1: Cse1–GFP (S. cerevisiae) (UniProt P33307)
T1 sequence: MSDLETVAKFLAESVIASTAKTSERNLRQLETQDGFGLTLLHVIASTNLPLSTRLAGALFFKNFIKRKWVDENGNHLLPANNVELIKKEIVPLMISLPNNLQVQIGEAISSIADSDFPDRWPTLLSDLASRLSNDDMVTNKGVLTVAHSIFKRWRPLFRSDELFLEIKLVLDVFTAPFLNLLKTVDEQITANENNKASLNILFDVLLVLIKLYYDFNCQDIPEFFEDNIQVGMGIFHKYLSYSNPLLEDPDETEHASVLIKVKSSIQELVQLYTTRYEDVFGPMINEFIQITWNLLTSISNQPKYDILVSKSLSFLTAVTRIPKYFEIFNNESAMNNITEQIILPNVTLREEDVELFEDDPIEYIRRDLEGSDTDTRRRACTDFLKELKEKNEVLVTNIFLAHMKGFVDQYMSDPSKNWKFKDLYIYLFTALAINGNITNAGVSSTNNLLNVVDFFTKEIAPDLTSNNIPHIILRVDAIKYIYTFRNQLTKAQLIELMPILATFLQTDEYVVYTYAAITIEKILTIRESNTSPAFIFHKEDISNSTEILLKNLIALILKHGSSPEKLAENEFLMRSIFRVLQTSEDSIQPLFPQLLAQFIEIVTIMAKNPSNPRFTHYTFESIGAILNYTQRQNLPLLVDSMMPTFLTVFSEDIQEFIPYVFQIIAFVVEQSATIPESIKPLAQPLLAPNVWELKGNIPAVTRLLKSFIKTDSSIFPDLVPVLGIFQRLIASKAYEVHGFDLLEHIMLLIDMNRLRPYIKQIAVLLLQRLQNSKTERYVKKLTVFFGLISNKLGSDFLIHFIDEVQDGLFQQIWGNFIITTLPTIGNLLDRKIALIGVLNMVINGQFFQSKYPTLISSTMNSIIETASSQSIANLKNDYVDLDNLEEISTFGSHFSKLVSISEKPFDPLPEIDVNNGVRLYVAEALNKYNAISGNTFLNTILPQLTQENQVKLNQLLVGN

T2: Mtr10–GFP (S. cerevisiae) (UniProt Q99189)
T2 sequence: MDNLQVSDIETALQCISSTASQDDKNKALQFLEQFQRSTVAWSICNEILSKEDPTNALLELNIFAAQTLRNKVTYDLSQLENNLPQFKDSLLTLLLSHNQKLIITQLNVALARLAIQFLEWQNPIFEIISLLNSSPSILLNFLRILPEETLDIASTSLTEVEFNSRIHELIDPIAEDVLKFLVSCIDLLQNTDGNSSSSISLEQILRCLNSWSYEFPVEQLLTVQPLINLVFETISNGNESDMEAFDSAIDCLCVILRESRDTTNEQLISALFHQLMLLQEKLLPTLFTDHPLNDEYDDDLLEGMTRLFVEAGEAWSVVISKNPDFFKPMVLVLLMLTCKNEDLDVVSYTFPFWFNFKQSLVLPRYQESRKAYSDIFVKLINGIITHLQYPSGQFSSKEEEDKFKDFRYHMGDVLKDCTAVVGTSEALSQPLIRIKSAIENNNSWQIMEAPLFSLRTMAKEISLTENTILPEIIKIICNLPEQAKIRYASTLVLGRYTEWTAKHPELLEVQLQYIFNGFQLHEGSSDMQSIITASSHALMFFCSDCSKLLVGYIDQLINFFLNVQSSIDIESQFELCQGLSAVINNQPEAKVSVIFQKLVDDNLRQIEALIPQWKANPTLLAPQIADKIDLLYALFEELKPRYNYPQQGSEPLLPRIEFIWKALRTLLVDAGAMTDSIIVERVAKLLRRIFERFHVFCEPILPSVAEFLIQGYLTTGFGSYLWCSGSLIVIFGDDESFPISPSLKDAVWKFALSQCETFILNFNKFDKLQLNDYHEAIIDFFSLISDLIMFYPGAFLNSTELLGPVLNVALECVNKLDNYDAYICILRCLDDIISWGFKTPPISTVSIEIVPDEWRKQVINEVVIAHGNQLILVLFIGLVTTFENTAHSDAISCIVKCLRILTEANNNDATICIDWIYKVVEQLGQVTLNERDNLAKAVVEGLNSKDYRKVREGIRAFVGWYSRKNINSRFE

T3: Lhp1–GFP (S. cerevisiae) (UniProt P33399)
T3 sequence: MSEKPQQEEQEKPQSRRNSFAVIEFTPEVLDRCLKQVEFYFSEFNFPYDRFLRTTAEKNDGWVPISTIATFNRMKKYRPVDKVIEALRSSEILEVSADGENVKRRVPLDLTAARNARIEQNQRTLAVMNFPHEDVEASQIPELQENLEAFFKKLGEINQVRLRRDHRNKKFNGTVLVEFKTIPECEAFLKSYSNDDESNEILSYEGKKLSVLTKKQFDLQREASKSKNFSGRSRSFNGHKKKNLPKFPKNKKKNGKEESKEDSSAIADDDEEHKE

T4: Prp24 (S. cerevisiae) (UniProt P49960)
T4 sequence: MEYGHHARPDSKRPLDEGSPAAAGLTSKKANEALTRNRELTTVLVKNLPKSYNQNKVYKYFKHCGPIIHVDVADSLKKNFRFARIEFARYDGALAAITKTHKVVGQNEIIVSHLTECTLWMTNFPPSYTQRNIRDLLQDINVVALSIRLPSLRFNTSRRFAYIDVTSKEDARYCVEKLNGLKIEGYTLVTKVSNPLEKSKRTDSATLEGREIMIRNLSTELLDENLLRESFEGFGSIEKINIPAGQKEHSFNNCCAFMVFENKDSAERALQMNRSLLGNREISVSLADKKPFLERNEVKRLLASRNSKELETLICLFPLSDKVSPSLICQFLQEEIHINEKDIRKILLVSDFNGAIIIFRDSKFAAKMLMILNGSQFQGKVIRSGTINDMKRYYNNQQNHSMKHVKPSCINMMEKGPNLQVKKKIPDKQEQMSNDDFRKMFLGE


How the values were obtained:
Experiment in all cases: co-IP; yeast lysate in PBSKMT buffer (PBS pH 7.4, 3 mM KCl, 2.5 mM MgCl2, 0.5 % Triton X-100); lysate split in two, one portion with RNase A 200 μg/ml; GFP- or MYC-tagged protein precipitated on GFP- or MYC-conjugated beads, 5 h at 4°C; western blot; Mex67 with Lhp1 also in the lsm8-1 mutant
Cse1–GFP (S. cerevisiae) = target: T1, Cse1–GFP (S. cerevisiae)
[1] = target: T2, Mtr10–GFP (S. cerevisiae)
Lhp1–GFP (S. cerevisiae) = target: T3, Lhp1–GFP (S. cerevisiae)
Prp24 (S. cerevisiae) = target: T4, Prp24 (S. cerevisiae)

binding (Cse1–GFP (S. cerevisiae)) | binding [1] | binding (Lhp1–GFP (S. cerevisiae)) | binding (Prp24 (S. cerevisiae)) | Binder
binds | binds | binds |  | Lsm8-myc (protein, UniProt P47093 1-109) MSATLKDYLNKRVVIIKVDGECLIASLNGFDKNTNLFITNVFNRISKEFICKAQLLRGSEIALVGLIDAENDDSLAPIDEKKVPMLKDTKNKIENEHVIWEKVYESKTK
 |  | binds | no binding | export receptor heterodimer Mex67–Mtr2 (complex, UniProt Q99257 1-599; P34232 1-184) chain 1: MSGFHNVGNINMMAQQQMQQNRIKISVRNWQNATMNDLINFISRNARVAVYDAHVEGPLVIGYVNSKAEAESLMKWNGVRFAGSNLKFELLDNNGASAGTSDTISFLRGVLLKRYDPQTKLLNLGALHSDPELIQKGVFSSISTQSKMFPAMMKLASTEKSLIVESVNLADNQLKDISAISTLAQTFPNLKNLCLANNQIFRFRSLEVWKNKFKDLRELLMTNNPITTDKLYRTEMLRLFPKLVVLDNVIVRDEQKLQTVYSLPMKIQQFFFENDALGQSSTDFATNFLNLWDNNREQLLNLYSPQSQFSVSVDSTIPPSTVTDSDQTPAFGYYMSSSRNISKVSSEKSIQQRLSIGQESINSIFKTLPKTKHHLQEQPNEYSMETISYPQINGFVITLHGFFEETGKPELESNKKTGKNNYQKNRRYNHGYNSTSNNKLSKKSFDRTWVIVPMNNSVIIASDLLTVRAYSTGAWKTASIAIAQPPQQQASVLPQVASMNPNITTPPQPQPSVVPGGMSIPGAPQGAMVMAPTLQLPPDVQSRLNPVQLELLNKLHLETKLNAEYTFMLAEQSNWNYEVAIKGFQSSMNGIPREAFVQF chain 2: MNTNSNTMVMNDANQAQITATFTKKILAHLDDPDSNKLAQFVQLFNPNNCRIIFNATPFAQATVFLQMWQNQVVQTQHALTGVDYHAIPGSGTLICNVNCKVRFDESGRDKMGQDATVPIQPNNTGNRNRPNDMNKPRPLWGPYFGISLQLIIDDRIFRNDFNGVISGFNYNMVYKPEDSLLKI
